This data set in a line: general procedure: Fmoc solid-phase peptide synthesis; 2-chlorotrityl chloride resin (Chem-Impex, 100-200 mesh, 1.1 meq/g); HATU/DIPEA.

Take “(5S,10S)-5-(tert-butoxycarbonyl)-10-(hydroxymethyl)-3,8,11,14-tetraoxo-1-phenyl-2-oxa-4,9,12,15-tetraazaheptadecan-17-oic acid”: the step yield (late stage modification step) is 96%.

Take “(17S,22S)-1-(aminooxy)-22-carboxy-17-(hydroxymethyl)-4,7,10,13,16,19,24-heptaoxo-3,6,9,12,15,18,23-heptaazaoctatriacontan-38-oic acid”: the step yield (late stage modification step) is listed as 95% yield. Also, under “late stage modification step, HPLC with CAD detection”, the “crude purity (method not given)” value is given as 81% purity. For the same substance, the isolated mass (whole synthesis) is given as 88 mg. The “final purity (method not given)” value (whole synthesis, LC-CAD, scale of the general procedure 0.4 mmol) worked out at 98.6%. For the same substance, the isolated yield (whole synthesis, scale of the general procedure 0.4 mmol) turned out to be 25.9%.

In turn, “(23S,28S)-tert-butyl 28-(((benzyloxy)carbonyl)amino)-23-(hydroxymethyl)-2,2-dimethyl-4,10,13,16,19,22,25-heptaoxo-3,6-dioxa-5,9,12,15,18,21,24-heptaazanonacosan-29-oate” had a step yield (coupling step) of 73%.

With “(5S,10S)-methyl 5-(tert-butoxycarbonyl)-10-(hydroxymethyl)-3,8,11,14-tetraoxo-1-phenyl-2-oxa-4,9,12,15-tetraazaheptadecan-17-oate”, under “coupling step”, the step yield is 93%.
